PMC5695583
The exact form of at least one protein or probe is not confirmed. At least one result comes from cells or an extract, where the contact may be indirect. For part of these data: No signal at the amounts used counts as a negative.

Tests used:
[1] = tested on: SpiHIF-1alpha (SpiHIFα) (Stylophora pistillata); assay: competition with a labelled probe; conditions: 10 mM Tris pH 7.5, 50 mM KCl, 5 mM MgCl2, 1 mM DTT, 0.05% NP-40, 2.5% glycerol, 1 ug poly(dI-dC), 3 ug nuclear extract, 2 nM probe, 23 C, 20 min, protein in an extract, unlabeled as competitor
[2] = tested on: SpiHIF-1alpha (SpiHIFα) (Stylophora pistillata); assay: EMSA supershift; conditions: nuclear extract from dark-exposed coral, anti-SpiHIFα, poly(dI-dC); 10 mM Tris pH 7.5, 50 mM KCl, 5 mM MgCl2, 1 mM DTT, 0.05% NP-40, 2.5% glycerol, 1 ug poly(dI-dC), 3 ug nuclear extract, 2 nM probe, 23 C, 20 min; protein in an extract; label: 5'-biotin (probe), unlabeled as competitor

Sequence | binding result ([1]; 200-fold excess unlabeled M18 against biotin-W18, did not compete or prevent the supershift) | binding result ([1]; 200-fold excess unlabeled W18 against biotin-W18, prevented the supershift, label: 5'-biotin (probe)) | binding result [2]
GCCCTAAAAGCTGTCTCA (double strand) [M18 (mutant HRE)] | no binding | – | –
GCCCTACGTGCTGTCTCA (double strand) [W18 (wild-type HRE)] | – | binds | binds
